From publication PMC11990703
No constants are given. Whether binding was seen depends on the method and setting. In cells and extracts the contact can be indirect. Binding calls can cover weak binding; strength is not graded here. Sequences can lack the tags named with a protein.

Biological target: OsCAF1A fused to an EYFP fragment (onion BiFC) (rice (Oryza sativa))
Experiment: split reporter; BiFC; combinations of nEYFP- and cEYFP-fused proteins co-expressed in onion epidermal cells via particle bombardment

- binding: binds
B1: OsRH8 fused to an EYFP fragment (onion BiFC) (protein, UniProt Q6H7S2 1-508)
chain: MDPRARYPPGIGNGRGGNPNYYNRGPPLQQQHNHHQQQQTSAPHHQQYVQRQPQQHHHHNHHQQHQQQQQQWLRRNQIAREAAGTDRNSEPKAVAQSPAVDGIDSSSQDWKAQLKLPPQDTRYRTEDVTATKGNEFEDYFLKRELLMGIYEKGFERPSPIQEESIPIALTGSDILARAKNGTGKTAAFCIPALEKIDQEKNAIQVVILVPTRELALQTSQVCKELGKHLKIQVMVTTGGTSLKDDIIRLYQPVHLLVGTPGRILDLTKKGICILKDCSMLIMDEADKLLSPEFQPSVEQLIRYLPASRQILMFSATFPVTVKEFKDKYLPKPYVINLMDELTLKGITQFYAFVEERQKVHCLNTLFSKLQINQSIIFCNSVNRVELLAKKITELGYSCFYIHAKMLQDHRNRVFHDFRNGACRNLVCTDLFTRGIDIQAVNVVINFDFPKTAETYLHRVGRSGRFGHLGLAVNLITYEDRFNLYRIEQELGTEIKPIPPQIDQAIYCQ
